The target in experiment [1] is CD49c (human) (UniProt P26006). Nature of the experiment: scFv as binding domain of a CAR on T cells; told in words only, no direct binding assay.
Experiment [2] has as its target CD104 (human) (UniProt P16144). The experiment is described as above.
Experiment [3] deals with CD104 (human) (UniProt P16144). Nature of the experiment: antibody used for staining of human pancreatic cancer cells (flow cytometry, immunohistochemistry; Example 1); told in words only. In general terms: Flow cytometry measures light scatter and fluorescence of single cells or particles in a stream.

Amino acid sequences for entries named in this document (tags omitted). Residues count along the entry.
UniProt P26006, residues 33-1051: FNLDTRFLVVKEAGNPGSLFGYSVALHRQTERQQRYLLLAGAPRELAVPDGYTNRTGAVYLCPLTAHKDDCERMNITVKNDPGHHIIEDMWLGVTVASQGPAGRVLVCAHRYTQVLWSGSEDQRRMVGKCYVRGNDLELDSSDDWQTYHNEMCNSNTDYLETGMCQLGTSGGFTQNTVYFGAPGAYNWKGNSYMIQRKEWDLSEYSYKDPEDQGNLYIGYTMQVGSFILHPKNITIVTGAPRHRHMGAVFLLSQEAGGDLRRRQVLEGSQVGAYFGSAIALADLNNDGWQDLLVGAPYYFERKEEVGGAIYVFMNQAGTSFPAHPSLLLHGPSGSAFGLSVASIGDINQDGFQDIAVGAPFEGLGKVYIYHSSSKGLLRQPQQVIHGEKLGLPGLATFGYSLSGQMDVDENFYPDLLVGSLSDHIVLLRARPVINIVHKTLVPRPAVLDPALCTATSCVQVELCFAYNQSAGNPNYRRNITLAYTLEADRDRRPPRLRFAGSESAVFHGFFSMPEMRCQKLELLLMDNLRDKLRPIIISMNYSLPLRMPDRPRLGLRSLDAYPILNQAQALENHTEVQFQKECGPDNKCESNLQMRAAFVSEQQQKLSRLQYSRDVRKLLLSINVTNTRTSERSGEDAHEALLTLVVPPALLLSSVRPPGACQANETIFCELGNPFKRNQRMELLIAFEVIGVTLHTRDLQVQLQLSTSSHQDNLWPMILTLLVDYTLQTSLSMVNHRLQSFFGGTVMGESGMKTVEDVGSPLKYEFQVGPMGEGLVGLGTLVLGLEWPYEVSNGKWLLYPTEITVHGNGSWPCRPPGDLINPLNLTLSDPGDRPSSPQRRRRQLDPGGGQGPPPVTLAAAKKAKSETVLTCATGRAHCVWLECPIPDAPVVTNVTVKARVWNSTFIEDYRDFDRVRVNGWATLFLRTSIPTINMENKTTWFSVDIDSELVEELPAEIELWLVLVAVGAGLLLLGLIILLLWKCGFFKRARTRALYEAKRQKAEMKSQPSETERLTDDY
UniProt P16144, residues 28-1822: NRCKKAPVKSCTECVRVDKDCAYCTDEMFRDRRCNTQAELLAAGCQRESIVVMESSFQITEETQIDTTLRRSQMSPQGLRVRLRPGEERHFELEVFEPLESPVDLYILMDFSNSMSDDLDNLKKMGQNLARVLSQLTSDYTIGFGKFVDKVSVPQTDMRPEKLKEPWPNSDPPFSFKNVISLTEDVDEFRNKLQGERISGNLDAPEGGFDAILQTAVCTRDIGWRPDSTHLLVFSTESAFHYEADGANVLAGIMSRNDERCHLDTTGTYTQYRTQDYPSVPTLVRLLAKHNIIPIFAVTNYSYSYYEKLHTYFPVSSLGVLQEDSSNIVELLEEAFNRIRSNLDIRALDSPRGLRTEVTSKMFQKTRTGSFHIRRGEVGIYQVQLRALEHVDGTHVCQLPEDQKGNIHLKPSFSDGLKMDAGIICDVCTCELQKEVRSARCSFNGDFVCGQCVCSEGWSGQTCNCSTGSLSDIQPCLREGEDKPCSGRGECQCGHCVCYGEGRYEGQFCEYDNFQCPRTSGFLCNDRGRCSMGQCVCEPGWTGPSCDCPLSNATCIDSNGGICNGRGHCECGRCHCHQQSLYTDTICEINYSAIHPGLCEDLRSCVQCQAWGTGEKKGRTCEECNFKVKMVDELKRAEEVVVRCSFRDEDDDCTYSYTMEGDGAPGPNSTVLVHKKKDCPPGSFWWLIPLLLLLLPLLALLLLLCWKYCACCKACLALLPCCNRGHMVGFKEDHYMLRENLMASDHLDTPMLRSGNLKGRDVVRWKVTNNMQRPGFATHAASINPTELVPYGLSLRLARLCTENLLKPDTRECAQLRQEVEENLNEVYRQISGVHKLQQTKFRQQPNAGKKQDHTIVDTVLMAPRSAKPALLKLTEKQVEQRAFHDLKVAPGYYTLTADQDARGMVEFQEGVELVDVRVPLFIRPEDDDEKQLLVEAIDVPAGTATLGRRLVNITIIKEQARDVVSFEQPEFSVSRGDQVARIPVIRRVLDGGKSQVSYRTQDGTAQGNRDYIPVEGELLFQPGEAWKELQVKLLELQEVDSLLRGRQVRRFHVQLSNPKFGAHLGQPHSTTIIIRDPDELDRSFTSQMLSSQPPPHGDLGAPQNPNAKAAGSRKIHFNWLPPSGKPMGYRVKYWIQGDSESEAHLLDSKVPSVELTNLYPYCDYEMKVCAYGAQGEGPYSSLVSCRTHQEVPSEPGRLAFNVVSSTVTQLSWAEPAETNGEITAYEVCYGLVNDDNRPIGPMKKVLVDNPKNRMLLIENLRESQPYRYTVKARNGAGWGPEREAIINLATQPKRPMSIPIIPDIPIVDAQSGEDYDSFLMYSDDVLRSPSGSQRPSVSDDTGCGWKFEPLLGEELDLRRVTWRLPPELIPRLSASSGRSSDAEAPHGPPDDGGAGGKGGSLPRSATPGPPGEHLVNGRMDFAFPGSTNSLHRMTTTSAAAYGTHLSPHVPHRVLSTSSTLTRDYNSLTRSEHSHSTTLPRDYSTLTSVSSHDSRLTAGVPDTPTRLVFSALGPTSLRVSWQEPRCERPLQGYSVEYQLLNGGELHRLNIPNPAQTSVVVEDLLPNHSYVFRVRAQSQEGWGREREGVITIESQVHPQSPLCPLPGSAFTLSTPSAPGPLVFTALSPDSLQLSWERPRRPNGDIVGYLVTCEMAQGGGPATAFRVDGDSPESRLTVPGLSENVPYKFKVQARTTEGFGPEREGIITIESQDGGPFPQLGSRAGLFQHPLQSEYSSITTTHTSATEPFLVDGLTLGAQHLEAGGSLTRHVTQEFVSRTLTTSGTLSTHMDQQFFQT

Binding data for five molecules are collected here from patent US20200282035A1 (MILTENYI BIOTEC B V, published 2020).

These are yes or no findings as the source states them, for the method shown. Some results given as binding are weak or reduced against the parent protein; the word gives no strength.

B1: CD49c specific CAR sequence VH-linker-VL (scFv, not shown: small tags and cut ends)
scFv: EVQLQQSGAELVKPGASVKLSCTASGFNIKDTYMHWVKQRPEQGLEWIGRIDPANGHTKYDPKFQGKATITADTSSNAAYLQLNSLTSEDTAVYYCARRVAYAMDYWGQGTSVTVSSGGGGSGGGGSGGGGSENVLTQSPAIMSASPGEKVTMTCSASSSVTYMHWYQQKSSTSPKLWIYDTSKLASGVPGRFSGSGSGNSYSLTISSMEAEDVATYCCFQGSGYPLTFGGGTKLEIK
Turning to B1, the binding result in experiment [1] is given as “binds”.

B2: CD104 specific CAR sequence VL-linker-VH (scFv, not shown: small tags and cut ends)
scFv: DIQMTQTPSSMPASLGERVTISCRASRGINNYLSWYQQNLDGTIKPLIYYTSNLQSGVPSRFSGSGSGTDYSLTISSLEPEDFAMYYCQQYDSSPWTFGGGTKLELKGGGGSGGGGSGGGGSQVNLLQSGAALVKPGASVKLSCKASGYTFTDYYIFWVKQSHGKSLEWIGYINPNSGSTNYNEKFKRKATLSVDKSTNTAYMELSRLTSEDSATYYCTRRAYYGYNPFDYWGQGVMVTVSS
Regarding B2, the binding entry in experiment [2] is given as “binds”.

B3: CD104 specific CAR sequence VH-linker-VL (scFv, not shown: small tags and cut ends)
scFv: QVNLLQSGAALVKPGASVKLSCKASGYTFTDYYIFWVKQSHGKSLEWIGYINPNSGSTNYNEKFKRKATLSVDKSTNTAYMELSRLTSEDSATYYCTRRAYYGYNPFDYWGQGVMVTVSSGGGGSGGGGSGGGGSDIQMTQTPSSMPASLGERVTISCRASRGINNYLSWYQQNLDGTIKPLIYYTSNLQSGVPSRFSGSGSGTDYSLTISSLEPEDFAMYYCQQYDSSPWTFGGGTKLELK
In the case of B3, the binding result in experiment [2] is listed as “binds”.

B4: CD104 specific antibody (antibody, V domains shown)
VH: QVNLLQSGAALVKPGASVKLSCKASGYTFTDYYIFWVKQSHGKSLEWIGYINPNSGSTNYNEKFKRKATLSVDKSTNTAYMELSRLTSEDSATYYCTRRAYYGYNPFDYWGQGVMVTVSS
VL: DIQMTQTPSSMPASLGERVTISCRASRGINNYLSWYQQNLDGTIKPLIYYTSNLQSGVPSRFSGSGSGTDYSLTISSLEPEDFAMYYCQQYDSSPWTFGGGTKLELK
As for B4, the binding entry in experiment [3] was “binds”.

B5: CD49c specific CAR sequence VL-linker-VH (scFv, not shown: small tags and cut ends)
scFv: ENVLTQSPAIMSASPGEKVTMTCSASSSVTYMHWYQQKSSTSPKLWIYDTSKLASGVPGRFSGSGSGNSYSLTISSMEAEDVATYCCFQGSGYPLTFGGGTKLEIKGGGGSGGGGSGGGGSEVQLQQSGAELVKPGASVKLSCTASGFNIKDTYMHWVKQRPEQGLEWIGRIDPANGHTKYDPKFQGKATITADTSSNAAYLQLNSLTSEDTAVYYCARRVAYAMDYWGQGTSVTVSS
B5: in experiment [1], the binding entry was “binds”.
